# Measured values: the supplement of paper PMC8728848
# Some of the results follow.
# B1: FGF1 (Homo sapiens), P05230 (protein)
# chain: MAEGEITTFTALTEKFNLPPGNYKKPKLLYSNGGHFLRILPDGTVDGTRDRSDQHIQLQLSAESVGEVYIKSTETGQYLAMTDGLLYGSQTPNEECLFLERLEENHYNTYISKHAEKNWFVGLKKNGSCKRGPRTHYGQAILFLPLPASSED
# How the values were obtained:
# Test in all cases: glycan array binding signal (z-score within array); higher = stronger binding
# Conditions in all cases: glycan notation: IUPAC condensed, linker removed
# [1] = molecular target: Gal3S(b1-3)[Fuc(a1-4)]GlcNAc
# Summary of the method: (§1)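 Arrays were curated from the Consortium for Functional Glycomics database, 3228 in total, and kept only where the protein sequence was available. Binding is expressed as a within-array Z-score. This score was averaged across arrays of the same protein sequence at different concentrations or buffers and across linkers, and negative values can be read as non-binding.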
# Gal3S(b1-4)Glc = molecular target: Gal3S(b1-4)Glc
# Summary of the method: as §1
# Gal3S(b1-4)Glc6S = molecular target: Gal3S(b1-4)Glc6S
# Summary of the method: as §1
# Gal3S(b1-4)GlcNAc = molecular target: Gal3S(b1-4)GlcNAc
# Summary of the method: as §1
# [2] = molecular target: Gal3S(b1-4)[Fuc(a1-3)]Glc6S
# Summary of the method: as §1
# [3] = molecular target: Gal3S(b1-4)[Fuc(a1-3)]GlcNAc
# Summary of the method: as §1
# [4] = molecular target: Gal3S(b1-4)[Fuc(a1-3)]GlcNAc6S
# Summary of the method: as §1
# Gal3S4S(b1-4)GlcNAc = molecular target: Gal3S4S(b1-4)GlcNAc
# Summary of the method: as §1
# Gal3S6S(b1-4)GlcNAc = molecular target: Gal3S6S(b1-4)GlcNAc
# Summary of the method: as §1
# Gal3S6S(b1-4)GlcNAc6S = molecular target: Gal3S6S(b1-4)GlcNAc6S
# Summary of the method: as §1
# Gal4S(b1-4)GlcNAc = molecular target: Gal4S(b1-4)GlcNAc
# Summary of the method: as §1
# Gal4S6S(b1-4)GlcNAc = molecular target: Gal4S6S(b1-4)GlcNAc
# Summary of the method: as §1
# Gal6P(b1-4)GlcNAc = molecular target: Gal6P(b1-4)GlcNAc
# Summary of the method: as §1
# Gal6S(b1-3)GlcNAc = molecular target: Gal6S(b1-3)GlcNAc
# Summary of the method: as §1
# Gal6S(b1-3)GlcNAc6S = molecular target: Gal6S(b1-3)GlcNAc6S
# Summary of the method: as §1
# Gal6S(b1-4)Glc = molecular target: Gal6S(b1-4)Glc
# Summary of the method: as §1
# Gal6S(b1-4)Glc6S = molecular target: Gal6S(b1-4)Glc6S
# Summary of the method: as §1
# Gal6S(b1-4)GlcNAc = molecular target: Gal6S(b1-4)GlcNAc
# Summary of the method: as §1
# Gal6S(b1-4)GlcNAc6S = molecular target: Gal6S(b1-4)GlcNAc6S
# Summary of the method: as §1
# GalNAc(a1-3)Gal = molecular target: GalNAc(a1-3)Gal
# Summary of the method: as §1
# GalNAc(a1-3)GalNAc = molecular target: GalNAc(a1-3)GalNAc
# Summary of the method: as §1
# [5] = molecular target: GalNAc(a1-3)GalNAc(b1-3)Gal(a1-4)Gal(b1-4)Glc
# Summary of the method: as §1
# [6] = molecular target: GalNAc(a1-3)GalNAc(b1-3)Gal(a1-4)Gal(b1-4)GlcNAc
# Summary of the method: as §1
# GalNAc(b1-3)Gal = molecular target: GalNAc(b1-3)Gal
# Summary of the method: as §1
# [7] = molecular target: GalNAc(b1-3)Gal(a1-4)Gal(b1-4)GlcNAc
# Summary of the method: as §1
# [8] = molecular target: GalNAc(b1-3)Gal(a1-4)Gal(b1-4)GlcNAc(b1-3)Gal(b1-4)Glc
# Summary of the method: as §1
# [9] = molecular target: GalNAc(b1-3)Gal(a1-6)Gal(b1-4)Glc
# Summary of the method: as §1
# GalNAc(b1-3)GalNAc = molecular target: GalNAc(b1-3)GalNAc
# Summary of the method: as §1
# GalNAc(b1-3)GlcNAc = molecular target: GalNAc(b1-3)GlcNAc
# Summary of the method: as §1
# GalNAc(b1-4)Gal(b1-4)Glc = molecular target: GalNAc(b1-4)Gal(b1-4)Glc
# Summary of the method: as §1
# GalNAc(b1-4)GlcNAc = molecular target: GalNAc(b1-4)GlcNAc
# Summary of the method: as §1
# [10] = molecular target: GalNAc(b1-4)GlcNAc(b1-2)Man
# Summary of the method: as §1
# [11] = molecular target: GalNAc(b1-4)GlcNAc(b1-2)Man(a1-3)[GalNAc(b1-4)GlcNAc(b1-2)Man(a1-6)]Man(b1-4)GlcNAc(b1-4)GlcNAc
# Summary of the method: as §1
# [12] = molecular target: GalNAc(b1-4)GlcNAc(b1-3)GalNAc(b1-4)GlcNAc
# Summary of the method: as §1
# GalNAc(b1-4)GlcNAc6S = molecular target: GalNAc(b1-4)GlcNAc6S
# Summary of the method: as §1
# GalNAc(b1-6)GalNAc = molecular target: GalNAc(b1-6)GalNAc
# Summary of the method: as §1
# GalNAc3S(b1-4)GlcNAc = molecular target: GalNAc3S(b1-4)GlcNAc
# Summary of the method: as §1
# GalNAc3S(b1-4)GlcNAc3S = molecular target: GalNAc3S(b1-4)GlcNAc3S
# Summary of the method: as §1
# [13] = molecular target: GalNAc3S(b1-4)[Fuc(a1-3)]GlcNAc
# Summary of the method: as §1
# GalNAc4S6S(b1-4)GlcNAc = molecular target: GalNAc4S6S(b1-4)GlcNAc
# Summary of the method: as §1
# GalNAc6S(b1-4)GlcNAc = molecular target: GalNAc6S(b1-4)GlcNAc
# Summary of the method: as §1
# Glc(a1-4)Glc = molecular target: Glc(a1-4)Glc
# Summary of the method: as §1
# [14] = molecular target: Glc(a1-4)Glc(a1-4)Glc(a1-4)Glc
# Summary of the method: as §1
# Glc(a1-6)Glc(a1-6)Glc = molecular target: Glc(a1-6)Glc(a1-6)Glc
# Summary of the method: as §1
# [15] = molecular target: Glc(a1-6)Glc(a1-6)Glc(a1-6)Glc
# Summary of the method: as §1
binder,measurement,setting,value
B1,glycan array binding signal (z-score),[1],3.14
same,glycan array binding signal (z-score),Gal3S(b1-4)Glc,-0.046
same,glycan array binding signal (z-score),Gal3S(b1-4)Glc6S,0.556
same,glycan array binding signal (z-score),Gal3S(b1-4)GlcNAc,0.083
same,glycan array binding signal (z-score),[2],1.23
same,glycan array binding signal (z-score),[3],0.189
same,glycan array binding signal (z-score),[4],-0.05
same,glycan array binding signal (z-score),Gal3S4S(b1-4)GlcNAc,-0.536
same,glycan array binding signal (z-score),Gal3S6S(b1-4)GlcNAc,-0.115
same,glycan array binding signal (z-score),Gal3S6S(b1-4)GlcNAc6S,1.04
same,glycan array binding signal (z-score),Gal4S(b1-4)GlcNAc,-0.846
same,glycan array binding signal (z-score),Gal4S6S(b1-4)GlcNAc,-0.697
same,glycan array binding signal (z-score),Gal6P(b1-4)GlcNAc,-0.472
same,glycan array binding signal (z-score),Gal6S(b1-3)GlcNAc,1.05
same,glycan array binding signal (z-score),Gal6S(b1-3)GlcNAc6S,-0.611
same,glycan array binding signal (z-score),Gal6S(b1-4)Glc,-0.316
same,glycan array binding signal (z-score),Gal6S(b1-4)Glc6S,0.102
same,glycan array binding signal (z-score),Gal6S(b1-4)GlcNAc,0.73
same,glycan array binding signal (z-score),Gal6S(b1-4)GlcNAc6S,2.17
same,glycan array binding signal (z-score),GalNAc(a1-3)Gal,-0.833
same,glycan array binding signal (z-score),GalNAc(a1-3)GalNAc,-0.764
same,glycan array binding signal (z-score),[5],-0.775
same,glycan array binding signal (z-score),[6],-0.706
same,glycan array binding signal (z-score),GalNAc(b1-3)Gal,0.253
same,glycan array binding signal (z-score),[7],-0.019
same,glycan array binding signal (z-score),[8],-0.551
same,glycan array binding signal (z-score),[9],-0.998
same,glycan array binding signal (z-score),GalNAc(b1-3)GalNAc,-0.779
same,glycan array binding signal (z-score),GalNAc(b1-3)GlcNAc,-0.145
same,glycan array binding signal (z-score),GalNAc(b1-4)Gal(b1-4)Glc,0.8
same,glycan array binding signal (z-score),GalNAc(b1-4)GlcNAc,0.286
same,glycan array binding signal (z-score),[10],-0.504
same,glycan array binding signal (z-score),[11],6.98
same,glycan array binding signal (z-score),[12],-0.514
same,glycan array binding signal (z-score),GalNAc(b1-4)GlcNAc6S,-0.848
same,glycan array binding signal (z-score),GalNAc(b1-6)GalNAc,-0.667
same,glycan array binding signal (z-score),GalNAc3S(b1-4)GlcNAc,-0.668
same,glycan array binding signal (z-score),GalNAc3S(b1-4)GlcNAc3S,-0.564
same,glycan array binding signal (z-score),[13],-0.673
same,glycan array binding signal (z-score),GalNAc4S6S(b1-4)GlcNAc,0.198
same,glycan array binding signal (z-score),GalNAc6S(b1-4)GlcNAc,-0.814
same,glycan array binding signal (z-score),Glc(a1-4)Glc,0.782
same,glycan array binding signal (z-score),[14],-0.126
same,glycan array binding signal (z-score),Glc(a1-6)Glc(a1-6)Glc,-0.37
same,glycan array binding signal (z-score),[15],0.17

# An excerpt of these results, with bars between the fields:
binder | measurement | setting | value
B1 | glycan array binding signal (z-score) | Gal6P(b1-4)GlcNAc | -0.472
same | glycan array binding signal (z-score) | Gal6S(b1-3)GlcNAc | 1.05
same | glycan array binding signal (z-score) | Gal6S(b1-3)GlcNAc6S | -0.611
same | glycan array binding signal (z-score) | Gal6S(b1-4)Glc | -0.316
same | glycan array binding signal (z-score) | Gal6S(b1-4)Glc6S | 0.102
same | glycan array binding signal (z-score) | Gal6S(b1-4)GlcNAc | 0.73
same | glycan array binding signal (z-score) | Gal6S(b1-4)GlcNAc6S | 2.17
same | glycan array binding signal (z-score) | GalNAc(a1-3)Gal | -0.833
same | glycan array binding signal (z-score) | GalNAc(a1-3)GalNAc | -0.764
same | glycan array binding signal (z-score) | [5] | -0.775
same | glycan array binding signal (z-score) | [6] | -0.706
same | glycan array binding signal (z-score) | GalNAc(b1-3)Gal | 0.253
same | glycan array binding signal (z-score) | [7] | -0.019
